Experimental data as given in the supplement of paper PMC4749390.
Where “and” joins values, the source holds several entries; their conditions need not be identical. Equal values may be shown once. Where a name gives a salt, the structure may show the parent alone. Some of the results follow. Single values are uncertain here, since repeats match poorly.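 JEG3 cells stably carry tetracycline-induced wild-type human LRH-1, a heavily sumoylated nuclear receptor. APOC3 and MUC1 are SUMO-sensitive transcripts, raised by SUMO-less LRH-1 or UBC9 knockdown, measured by RT-qPCR against TBP and DMSO controls. A robust Z-score above +2 or below -2 marked a primary hit before toxicity and TBP filtering.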

System: JEG3 expressing hLRH-1
Test: APOC3 transcript change (ddCt vs TBP and DMSO), Z-score over library; higher = higher APOC3 expression
Settings: 10 µM; time (hr): 24

| Structure (SMILES) | APOC3 transcript change (Z-score) |
| --- | --- |
| OC[C@@H](O)[C@@H](O)[C@H](O)[C@@H](O)CO [mannitol] | -1.61 |
| C#C[C@]1(O)CC[C@H]2[C@@H]3[C@H](C)CC4=C(CCC(=O)C4)[C@H]3CC[C@@]21C [tibolone] | -1.24 |
| CCn1cc(C(=O)O)c(=O)c2cnc(N3CCNCC3)nc21 [pipemidic acid] | -0.283 |
| Oc1ccc(O)cc1 [hydroquinone] | 0.233 |
| CC(=O)N[C@@H](CC(C)C)C(=O)O [acetyl-l-leucine] | -0.204 |
| NCC1CCCCC1CC(=O)O (configuration not stated) [gabapentin] | -0.359 |
| O=C(O)c1cc(=O)c2c(OCC(O)COc3cccc4oc(C(=O)O)cc(=O)c34)cccc2o1 [cromolyn sodium] | 0.755 |
| CC1(C)O[C@@H]2C[C@H]3[C@@H]4CCC5=CC(=O)C=C[C@]5(C)[C@H]4[C@@H](O)C[C@]3(C)[C@]2(C(=O)CO)O1 [desonide] | 2.11 |
| CCCCNc1cc(C(=O)O)cc(S(N)(=O)=O)c1Oc1ccccc1 [bumetanide] | -0.0902 |
| C[C@]12CCC3c4ccc(O)cc4CCC3C1CCC2=O (some centres not stated) [estrone] | 0.248 |
| COC(=O)Nc1nc2cc(C(=O)c3ccccc3)ccc2[nH]1 [mebendazole] | -1.38 |
| CCCCOc1ccc(C(=O)CCN2CCCCC2)cc1 [dyclonine hydrochloride] | 0.387 and 0.426 |
| CNC(C)[C@@H]1CC[C@@H](N)[C@@H](OC2[C@@H](N)C[C@@H](N)[C@H](OC3OC[C@](C)(O)[C@H](NC)[C@H]3O)[C@H]2O)O1 (some centres not stated) [gentamicin sulfate] | -0.881 |
| CN(C)[C@@H]1C(=O)C(C(N)=O)=C(O)[C@@]2(O)C(=O)C3=C(O)c4c(O)ccc(Cl)c4[C@@H](O)[C@H]3C[C@@H]12 [demeclocycline hydrochloride] | -0.761 |
| C[C@H]1COc2c(N3CCN(C)CC3)c(F)cc3c(=O)c(C(=O)O)cn1c23 [levofloxacin] | -0.39 |
| Nc1c(Br)cc(Br)cc1CNC1CCC(O)CC1 (configuration not stated) [ambroxol hydrochloride] | 0.599 |
| Cc1cccc(CN2CCN(C(c3ccccc3)c3ccc(Cl)cc3)CC2)c1 (configuration not stated) [meclizine hydrochloride] | 0.7 |
| CCN(CC)C(=S)SSC(=S)N(CC)CC [disulfiram] | -0.641 |
| CC1(C)S[C@@H]2[C@H](NC(=O)C(C(=O)O)c3ccccc3)C(=O)N2[C@H]1C(=O)O (some centres not stated) [carbenicillin disodium] | 1.81 |
| COc1ccc(OC)c(C(O)CNC(=O)CN)c1 (configuration not stated) [midodrine hydrochloride] | 0.678 |
| C[C@H](N)[C@H](O)c1cccc(O)c1 [metaraminol bitartrate] | -0.794 |
| CC(=O)OCC(=O)[C@@]1(O)CCC2C3CCC4=CC(=O)C=CC4(C)C3[C@@H](O)C[C@@]21C (some centres not stated) [prednisolone acetate] | 0.0674 |
| Cc1ccccc1OCC(O)CO (configuration not stated) [mephenesin] | -0.345 |
| N=C(N)N [guanidine carbonate] | -0.673 |

A few values from the entries so far:
Entry of CC(=O)N[C@@H](CC(C)C)C(=O)O [acetyl-l-leucine] under APOC3 transcript change (Z-score): -0.204
Entry of O=C(O)c1cc(=O)c2c(OCC(O)COc3cccc4oc(C(=O)O)cc(=O)c34)cccc2o1 [cromolyn sodium] under APOC3 transcript change (Z-score): 0.755
Entry of CNC(C)[C@@H]1CC[C@@H](N)[C@@H](OC2[C@@H](N)C[C@@H](N)[C@H](OC3OC[C@](C)(O)[C@H](NC)[C@H]3O)[C@H]2O)O1 (some centres not stated) [gentamicin sulfate] under APOC3 transcript change (Z-score): -0.881
Entry of C[C@]12CCC3c4ccc(O)cc4CCC3C1CCC2=O (some centres not stated) [estrone] under APOC3 transcript change (Z-score): 0.248
Entry of N=C(N)N [guanidine carbonate] under APOC3 transcript change (Z-score): -0.673

Next results.

| Structure (SMILES) | APOC3 transcript change (Z-score) |
| --- | --- |
| OCCN1CCN(CCCN2c3ccccc3Sc3ccc(Cl)cc32)CC1 [perphenazine] | 0.821 |
| CN[C@@H]1[C@@H](O)[C@@H](O[C@@H]2[C@@H](O)[C@H](O[C@H]3OC(CN)=CC[C@H]3N)[C@@H](N)C[C@H]2N)OC[C@]1(C)O [sisomicin sulfate] | -0.709 |
| COc1ccc(C[C@H](N)C(=O)N[C@@H]2[C@@H](CO)OC(n3cnc4c(N(C)C)ncnc43)[C@@H]2O)cc1 (some centres not stated) [puromycin hydrochloride] | -5.63 |
| CN(C)C(=O)C(CCN1CCC(O)(c2ccc(Cl)cc2)CC1)(c1ccccc1)c1ccccc1 [Loperamide hydrochloride] | 0.496 |
| CN(C)CCC=C1c2ccccc2CCc2ccccc21 [Amitriptyline hydrochloride] | -0.826 |
| CC(C)OC(=O)CCC/C=C\C[C@@H]1[C@@H](/C=C/[C@@H](O)COc2cccc(C(F)(F)F)c2)[C@H](O)C[C@@H]1O [travoprost] | 0.939 |
| CCC(=O)Oc1ccc2c(c1)CC[C@@H]1[C@@H]2CC[C@]2(C)[C@@H](OC(=O)CC)CC[C@@H]12 [estradiol dipropionate] | -0.739 |
| Clc1ccccc1CN1CCc2sccc2C1 [ticlopidine hydrochloride] | -1.4 |
| CCCC1O[C@@H]2C[C@H]3[C@@H]4CCC5=CC(=O)C=C[C@]5(C)[C@H]4[C@@H](O)C[C@]3(C)[C@]2(C(=O)CO)O1 (some centres not stated) [budesonide] | 0.532 |
| OCC(O)CN1CCN(c2ccccc2)CC1 (configuration not stated) [dropropizine] | -0.0917 |
| CN1C2CC[C@H]1C[C@@H](OC(=O)C(O)c1ccccc1)C2 (some centres not stated) [homatropine bromide] | 0.104 |
| CC(COc1ccccc1)N(CCCl)Cc1ccccc1 (configuration not stated) [Phenoxybenzamine hydrochloride] | -1.11 |
| CN(C/C=C/c1ccccc1)Cc1cccc2ccccc12 [naftifine hydrochloride] | -0.02 |
| CC(=O)[C@H]1CCC2C3C=CC4=CC(=O)CC[C@@]4(C)C3CC[C@@]21C (some centres not stated) [dydrogesterone] | 0.287 |
| COC1=CC(=O)C[C@@H](C)[C@]12Oc1c(Cl)c(OC)cc(OC)c1C2=O [griseofulvin] | 1.35 |
| CCOC(=O)N1CCC(=C2c3ccc(Cl)cc3CCc3cccnc32)CC1 [loratadine] | -0.654 |
| CCOc1nc2cccc(C(=O)O)c2n1Cc1ccc(-c2ccccc2-c2nn[nH]n2)cc1 [candesartan] | -0.831 |
| CC[C@@H]1C(=O)OC[C@@H]1Cc1cncn1C [(+)-Pilocarpine hydrochloride] | -1.01 |
| CCCCCN(CCCCC)C(=O)C(CCC(=O)O)NC(=O)c1ccc(Cl)c(Cl)c1 (configuration not stated) [Lorglumide sodium] | 0.0633 |
| Cn1nnnc1SCC1=C(C(=O)O)N2C(=O)C(NC(=O)C(OC=O)c3ccccc3)C2SC1 (configuration not stated) [cefamandole nafate] | -0.254 |
| CC[C@H]1OC(=O)C[C@@H](O)[C@H](C)[C@@H](O[C@@H]2O[C@H](C)[C@@H](O[C@H]3C[C@@](C)(O)[C@@H](O)[C@H](C)O3)[C@H](N(C)C)[C@H]2O)[C@@H](CC=O)C[C@@H](C)C(=O)/C=C/C(C)=C/[C@@H]1CO[C@@H]1O[C@H](C)[C@@H](O)[C@@H](OC)[C@H]1OC [tylosin tartrate] | -0.382 |
| CN1C2CCCC1CC(NC(=O)c1nn(C)c3ccccc13)C2 (configuration not stated) [granisetron hydrochloride] | 0.512 |
| CC1=C(/C=C/C(C)=C/C=C/C(C)=C/C=C/C=C(C)/C=C/C=C(C)/C=C/C2=C(C)CCCC2(C)C)C(C)(C)CCC1 [beta-carotene] | 0.278 |
| COc1ccc(C(=O)c2ccccc2)c(O)c1 [oxybenzone] | -0.512 |

| Structure (SMILES) | APOC3 transcript change (Z-score) |
| --- | --- |
| COc1ncnc(NS(=O)(=O)c2ccc(N)cc2)c1OC [sulfadoxine] | 1.21 |
| CCS(=O)(=O)CCn1c([N+](=O)[O-])cnc1C [tinidazole] | -0.0424 |
| COc1ccc(C(=O)CC(=O)c2ccc(C(C)(C)C)cc2)cc1 [avobenzone] | -0.00456 |
| CC[N+](C)(CC)CCOC(=O)C(O)(c1ccccc1)C1CCCCC1 (configuration not stated) [oxyphenonium bromide] | -0.195 |
| CC12CCC3C(=CCc4cc(O)ccc43)C1CCC2=O (configuration not stated) [equilin] | 0.416 |
| CN1CCc2c(c3ccccc3n2Cc2ccccc2)C1 [mebhydrolin naphthalenesulfonate] | 0.532 |
| CCCCCC(=O)O[C@]1(C(C)=O)CC[C@H]2[C@@H]3CCC4=CC(=O)CC[C@]4(C)[C@H]3CC[C@@]21C [hydroxyprogesterone caproate] | 0.546 |
| CC[N+](CC)(CC(=O)Nc1c(C)cccc1C)Cc1ccccc1 [denatonium benzoate] | -0.227 |
| Cc1cc(C)cc(OCC2CNC(=O)O2)c1 (configuration not stated) [metaxalone] | 1.03 |
| CCCCc1nc(Cl)c(CO)n1Cc1ccc(-c2ccccc2-c2nn[nH]n2)cc1 [losartan] | -0.327 |
| CN1C(C(=O)Nc2ccccn2)=C(O)c2ccccc2S1(=O)=O [piroxicam] | 0.401 |
| C[C@@H](O)[C@H]1C(=O)N2C(C(=O)O)=C(S[C@@H]3CN[C@H](C(=O)N(C)C)C3)[C@H](C)[C@H]12 [meropenem] | 0.296 |
| C[C@@H]1O[C@@H](OC[C@H]2O[C@@H](Oc3c(-c4ccc(OCCO)c(OCCO)c4)oc4cc(OCCO)cc(O)c4c3=O)[C@H](O)[C@@H](O)[C@@H]2O)[C@H](O)[C@H](O)[C@H]1O [troxerutin] | -0.969 |
| O=C(CCNNC(=O)c1ccncc1)NCc1ccccc1 [Nialamide] | -0.457 |
| CN(C)CCOC(c1ccccc1)c1ccccc1 [Diphenhydramine hydrochloride] | -0.326 |
| O=C1C(=O)C([C@H]2CC[C@H](c3ccc(Cl)cc3)CC2)=C(O)c2ccccc21 [atovaquone] | -1.4 |
| C[C@H](N[C@@H](CCc1ccccc1)C(=O)O)C(=O)N1Cc2ccccc2C[C@H]1C(=O)O [quinaprilat] | -0.568 |
| Cn1c(=O)c2c(ncn2CC(O)CO)n(C)c1=O (configuration not stated) [dyphylline] | -0.857 |
| C[C@]12C=CC(=O)C=C1CC[C@H]1[C@@H]3C[C@@H](O)[C@](O)(C(=O)CO)[C@@]3(C)C[C@H](O)[C@@]12F [triamcinolone] | 1.09 |
| Oc1ccnc(S)n1 [2-thiouracil] | -0.388 |
| CN1C(=O)OC(C)(C)C1=O [trimethadione] | -0.434 |
| CC(C)NC[C@H](O)COc1cccc2ccccc12 [dexpropranolol hydrochloride] | 0.292 |
| COc1cc2ncnc(Nc3ccc(F)c(Cl)c3)c2cc1OCCCN1CCOCC1 [gefitinib] | -0.804 |
| C[N+](C)(CCOc1ccccc1)Cc1ccccc1 [bephenium hydroxynapthoate] | -0.614 |
